Measured values from publication doi:10.1101/2020.03.29.20041962.
Results are given in words; binding and its absence hold for the method and conditions named. For some assays here: Binding seen in cells or lysates may run through a third protein. Some results given as binding are weak or reduced against the parent protein; the word gives no strength.

The chains behind the UniProt entries cited, without tags or fusion partners. Residues count along the entry.
UniProt O00187, residues 16-686: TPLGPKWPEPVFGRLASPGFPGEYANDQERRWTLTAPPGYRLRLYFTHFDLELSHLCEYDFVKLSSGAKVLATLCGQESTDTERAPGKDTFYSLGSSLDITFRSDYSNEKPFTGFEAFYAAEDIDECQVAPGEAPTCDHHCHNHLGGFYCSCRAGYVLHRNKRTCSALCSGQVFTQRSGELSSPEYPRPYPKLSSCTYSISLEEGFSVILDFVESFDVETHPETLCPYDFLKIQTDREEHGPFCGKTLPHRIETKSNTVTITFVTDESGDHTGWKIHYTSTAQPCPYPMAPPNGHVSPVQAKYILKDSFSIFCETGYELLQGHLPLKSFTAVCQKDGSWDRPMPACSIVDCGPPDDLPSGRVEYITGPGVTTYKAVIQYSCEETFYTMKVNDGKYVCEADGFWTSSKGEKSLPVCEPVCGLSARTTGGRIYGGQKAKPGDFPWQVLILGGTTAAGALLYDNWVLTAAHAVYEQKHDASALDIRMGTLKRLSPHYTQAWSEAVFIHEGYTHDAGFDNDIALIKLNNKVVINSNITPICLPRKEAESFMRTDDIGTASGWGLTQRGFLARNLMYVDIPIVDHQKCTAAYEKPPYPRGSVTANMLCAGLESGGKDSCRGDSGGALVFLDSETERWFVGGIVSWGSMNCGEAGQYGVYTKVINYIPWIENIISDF
UniProt P11226, residues 21-248: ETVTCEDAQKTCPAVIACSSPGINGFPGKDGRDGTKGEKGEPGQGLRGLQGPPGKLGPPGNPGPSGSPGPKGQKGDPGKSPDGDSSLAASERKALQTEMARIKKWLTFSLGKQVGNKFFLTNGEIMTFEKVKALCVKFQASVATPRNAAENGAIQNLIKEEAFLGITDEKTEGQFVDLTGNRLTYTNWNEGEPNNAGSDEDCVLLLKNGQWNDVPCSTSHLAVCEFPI

Assays:
[1] = target: Flag-tagged full-length MASP-2 (human) (UniProt O00187); test: co-IP
[2] = target: Mannan-binding lectin (MBL) (UniProt P11226); test: ELISA

Substance | binding [1] | binding [2]
Flag-tagged full-length MASP-2 (from UniProt O00187) (enzyme) | binds | –
Purified recombinant MASP-2 (pET22b-MASP-2, renatured) (from UniProt O00187) (enzyme) | – | binds
